Consider 1 molecule from article PMC3324464, “The GPI Anchor Signal Sequence Dictates the Folding and Functionality of the Als5 Adhesin from Candida albicans” (PLoS ONE, 2012).

Protein sequences, listed by entry. Tags and fused reporters are not part of them. Lines headed by an entry give the natural chain unless they say otherwise; changes in a name come on top.
UniProt Q5A8T7: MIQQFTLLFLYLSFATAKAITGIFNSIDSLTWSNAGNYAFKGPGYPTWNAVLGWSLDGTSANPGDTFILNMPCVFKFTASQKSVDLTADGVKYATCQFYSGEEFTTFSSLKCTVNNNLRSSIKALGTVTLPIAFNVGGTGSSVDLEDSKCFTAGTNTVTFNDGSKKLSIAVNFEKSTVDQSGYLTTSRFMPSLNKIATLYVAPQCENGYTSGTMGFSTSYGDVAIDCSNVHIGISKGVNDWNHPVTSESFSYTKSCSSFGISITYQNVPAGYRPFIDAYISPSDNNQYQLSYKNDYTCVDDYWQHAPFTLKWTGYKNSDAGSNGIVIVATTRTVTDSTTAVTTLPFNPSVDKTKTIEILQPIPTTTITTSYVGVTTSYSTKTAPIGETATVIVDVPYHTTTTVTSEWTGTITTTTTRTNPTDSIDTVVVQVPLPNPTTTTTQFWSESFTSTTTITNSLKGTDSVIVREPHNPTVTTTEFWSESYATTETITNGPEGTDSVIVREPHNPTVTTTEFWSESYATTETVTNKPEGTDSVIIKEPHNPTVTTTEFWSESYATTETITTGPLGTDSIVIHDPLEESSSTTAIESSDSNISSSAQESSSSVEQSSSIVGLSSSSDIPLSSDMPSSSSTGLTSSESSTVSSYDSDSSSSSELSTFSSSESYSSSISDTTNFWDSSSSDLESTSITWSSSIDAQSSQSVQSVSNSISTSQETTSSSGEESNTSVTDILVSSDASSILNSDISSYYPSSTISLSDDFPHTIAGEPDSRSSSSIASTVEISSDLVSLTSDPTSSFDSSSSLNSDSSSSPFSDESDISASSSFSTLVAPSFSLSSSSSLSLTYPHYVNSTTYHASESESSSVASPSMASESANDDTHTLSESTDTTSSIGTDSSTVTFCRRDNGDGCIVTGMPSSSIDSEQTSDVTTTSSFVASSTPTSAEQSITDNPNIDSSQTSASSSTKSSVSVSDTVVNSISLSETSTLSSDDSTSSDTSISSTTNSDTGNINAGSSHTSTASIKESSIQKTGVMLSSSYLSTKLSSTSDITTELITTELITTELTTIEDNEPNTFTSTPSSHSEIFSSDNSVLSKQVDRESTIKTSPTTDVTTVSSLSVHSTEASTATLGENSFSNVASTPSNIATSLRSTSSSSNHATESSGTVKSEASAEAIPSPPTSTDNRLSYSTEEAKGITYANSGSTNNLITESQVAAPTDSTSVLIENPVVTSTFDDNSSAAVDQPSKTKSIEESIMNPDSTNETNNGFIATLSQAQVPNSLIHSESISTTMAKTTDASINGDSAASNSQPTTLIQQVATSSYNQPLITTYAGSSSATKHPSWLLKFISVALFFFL

For the test, the target named is GST-Als5-SS (Candida albicans) (UniProt Q5A8T7). Description: other fluorescence titration; both purified.

No constants are given. Whether binding was seen depends on the method and setting.

Take VSPIRLK: the binding entry is “no binding (tested: peptide up to 1.5 µM)”.
